Values from PubChem BioAssay AID1259254 (NCATS, 2017)
Shown is a random part of about 59,000 reagents. In the full data, about 1,550 (2.6%) are marked active. 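G2 share is only a proxy for re-replication; each gene was hit by three separate siRNAs, and active genes were retested.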 The raw values are shown without normalisation. The numbers tell different reagents against one gene apart. Not stated in the record: the amount of reagent.

Test: 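Gene knock-downs that lead to re-replication, shown by excess G2 DNA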 (primary screen)
Cells: human HCT116 colorectal cancer cells
Knock-down reagent: single siRNA against human genes
Timing: 3 days
Measured: 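Nuclei stained with Hoechst and imaged; cell-cycle phase assigned by DNA content; G2 share scaled per plate, non-targeting siRNA 0%, GMNN siRNA 100%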
Reading the numbers: G2 robust z-score and G2 cells, % of GMNN control: higher = more G2 cells, more excess DNA replication; raw share of cells in G2: higher = larger share of cells with G2 DNA content
Call rule: 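Active siRNAs have a G2 robust z of 5 or more median absolute deviations over the median, which in these data means about 38% or higher of GMNN control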

gene symbol,reagent no.,G2 robust z-score,"G2 cells, % of GMNN control",raw share of cells in G2 (%),call
"ACP5 (acid phosphatase 5, tartrate resistant)",1,0.956,9.69,7.95,inactive
"ACP5 (acid phosphatase 5, tartrate resistant)",2,0.821,8.74,6.94,inactive
"ACP5 (acid phosphatase 5, tartrate resistant)",3,-0.551,-0.911,3.22,inactive
KLHL4 (kelch like family member 4),1,0.773,8.4,7.45,inactive
KLHL4 (kelch like family member 4),2,-0.549,-0.898,3.96,inactive
KLHL4 (kelch like family member 4),3,0.122,3.82,8.11,inactive
WARS1P1 (tryptophanyl-tRNA synthetase 1 pseudogene 1),1,0.453,6.15,6.67,inactive
WARS1P1 (tryptophanyl-tRNA synthetase 1 pseudogene 1),2,-0.679,-1.81,3.37,inactive
WARS1P1 (tryptophanyl-tRNA synthetase 1 pseudogene 1),3,1.58,14.1,9.41,inactive
"USF2 (upstream transcription factor 2, c-fos interacting)",1,-0.238,1.29,3.97,inactive
"USF2 (upstream transcription factor 2, c-fos interacting)",2,3.05,24.4,16.3,inactive
"USF2 (upstream transcription factor 2, c-fos interacting)",3,-0.0436,2.66,4.07,inactive
TMEM44 (transmembrane protein 44),1,-0.42,0.013,4.09,inactive
TMEM44 (transmembrane protein 44),2,0.871,9.1,5.85,inactive
TMEM44 (transmembrane protein 44),3,-0.0362,2.71,3.78,inactive
KDR (kinase insert domain receptor),1,-0.375,0.331,5.72,inactive
KDR (kinase insert domain receptor),2,1.11,10.8,9.05,inactive
KDR (kinase insert domain receptor),3,0.00833,3.03,5.09,inactive
OR6B1 (olfactory receptor family 6 subfamily B member 1),1,-0.338,0.592,4.4,inactive
OR6B1 (olfactory receptor family 6 subfamily B member 1),2,4.23,32.8,13.5,inactive
OR6B1 (olfactory receptor family 6 subfamily B member 1),3,-0.654,-1.63,1.99,inactive
FGF4 (fibroblast growth factor 4),1,-0.677,-1.8,4.46,inactive
FGF4 (fibroblast growth factor 4),2,-0.797,-2.64,3.12,inactive
FGF4 (fibroblast growth factor 4),3,-0.125,2.09,4.34,inactive
OCIAD1 (OCIA domain containing 1),1,-0.754,-2.34,2.77,inactive
OCIAD1 (OCIA domain containing 1),2,0.022,3.12,5.59,inactive
OCIAD1 (OCIA domain containing 1),3,-0.0249,2.79,4.12,inactive
OTX2 (orthodenticle homeobox 2),1,-1.09,-4.69,1.6,inactive
OTX2 (orthodenticle homeobox 2),2,0.0152,3.07,6.37,inactive
OTX2 (orthodenticle homeobox 2),3,-0.484,-0.435,4.57,inactive

Look-ups from the entries so far:
KDR (kinase insert domain receptor) #3, G2 robust z-score: 0.00833
KLHL4 (kelch like family member 4) #3, G2 robust z-score = 0.122
